## Screening data, single-dose tests

Each number is a percent effect as filed.
How 0% and 100% were set is not recorded. Most values in the screen are low, and negative values occur.
The compounds are a random part of those screened.
Two or more numbers in one place are separate tests of the same structure; such repeats can differ widely.

Mtb glucose medium: 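Phenotypic screen: M. tuberculosis growth, glucose 7H9 medium, 3 days; the read-out is not stated. Tested at 50 µM. The record gives no direction; compounds that gave an IC50 in retests scored well above the rest, so higher reads as more growth inhibition. Size under these conditions: about 69,000 compounds, about 760 of them at 50% or above in at least one test.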
Mtb cholesterol medium: 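Whole-cell growth test on Mycobacterium tuberculosis, read after 4 days in a medium based on cholesterol and the lipid DPPC; the read-out is not stated. Tested at 50 µM. Direction is inferred from retests: higher values go with more growth inhibition. Size under these conditions: about 69,000 compounds, about 370 of them at 50% or above in at least one test.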

COCC1CC2(CCN(Cc3nccs3)CC2)CN1Cc1ccccn1.O=C(O)C(F)(F)F.O=C(O)C(F)(F)F.O=C(O)C(F)(F)F (stereo unspecified) gave Mtb glucose medium: -24.46%; Mtb cholesterol medium: -10.47%.
Cc1ccc(CSc2nc(N)cc(NCC(=O)N3CCNCC3)n2)cc1 gave Mtb glucose medium: 37.32% and 19.43%; Mtb cholesterol medium: 14.27%.
CC(=O)N1CC2(CCN(C(=O)CO)CC2)c2cc(C)ccc21 gave Mtb glucose medium: 1.576%; Mtb cholesterol medium: -10.91%.
Cc1csc(N(C)C(=O)C2CC(=O)N(c3ccccc3Cl)C2)n1 (stereo unspecified) gave Mtb glucose medium: -14.51%; Mtb cholesterol medium: -8.72%.
Cc1nc(CN2CCN(Cc3ccoc3)Cc3cccnc32)cs1.O=C(O)C(F)(F)F.O=C(O)C(F)(F)F.O=C(O)C(F)(F)F gave Mtb glucose medium: -14.72%; Mtb cholesterol medium: -28.94%.
COCCC(=O)N1CCC2(CCN(Cc3cccc(F)c3)C2)C1 (stereo unspecified) gave Mtb glucose medium: -51.52%; Mtb cholesterol medium: -41.34% and -29.41%.
Cc1ccc(C(=O)N(C)CC(=O)NCC(F)(F)F)cn1 gave Mtb glucose medium: -12.59%; Mtb cholesterol medium: -4.966% and 0.9266%.
CCOCCCC(=O)N1CCN(c2cccc(OC)c2)C(C)C1 (stereo unspecified) gave Mtb glucose medium: 9.772%; Mtb cholesterol medium: -9.533%.
O=C(CCc1ccc(OC(F)(F)F)cc1)N1CCCS1(=O)=O gave Mtb glucose medium: 6.286% and -9.415%; Mtb cholesterol medium: -11.52%.
COc1ccc(CN2CCn3cc(Cn4cccn4)nc3C2)cc1.O=C(O)C(F)(F)F gave Mtb glucose medium: 8.329%; Mtb cholesterol medium: 6.608%.
CS(=O)(=O)N1CCC2(CCCN(c3ncc(F)cn3)C2)C1 (stereo unspecified) gave Mtb glucose medium: -14.73% and -9.822%; Mtb cholesterol medium: 2.044%.
Cc1cc(C2CCCN(C(=O)COc3ccc(F)cc3F)C2)n[nH]1 (stereo unspecified) gave Mtb glucose medium: 24.41% and 2.046%; Mtb cholesterol medium: 1.428%.
Fc1ccc(-c2nnc(CN3CCCC3Cn3cncn3)o2)cc1 (stereo unspecified) gave Mtb glucose medium: 11.63%; Mtb cholesterol medium: 4.467%.
CS(=O)(=O)N[C@@H]1CN(Cc2ccccc2)C[C@H]1O gave Mtb glucose medium: 14.48%; Mtb cholesterol medium: 11.66% and -2.39%.
CC(=O)N1CCC(Cc2nccnc2-c2ccnn2C)CC1 gave Mtb glucose medium: 14.83%; Mtb cholesterol medium: 5.385%.
COc1ccc(C)cc1CC(=O)N1CCN(CC(C)O)CC1 (stereo unspecified) gave Mtb glucose medium: 12.88%; Mtb cholesterol medium: 6.121%.
CCC(CC)NC(=O)c1ncn2c1CN(CC)S(=O)(=O)c1ccccc1-2.O=C(O)C(F)(F)F gave Mtb glucose medium: 17.84%; Mtb cholesterol medium: -21.62%.
CC(=O)NCCC1CCCCN1S(=O)(=O)c1ccc2ccccc2c1 (stereo unspecified) gave Mtb glucose medium: 2.319%; Mtb cholesterol medium: 14.9%.
Cc1nc(Nc2ncccn2)cc(C2CCN(CC(C)C)C2)n1 (stereo unspecified) gave Mtb glucose medium: -14.03%; Mtb cholesterol medium: -18.22%.
CC(C)Cc1cc(NC(=O)c2ccccc2)n(C)n1 gave Mtb glucose medium: 52.67%; Mtb cholesterol medium: 33.81%.
CC(C)c1cc(C(=O)NCC(O)C2CCOCC2)nn1C(C)(C)C (stereo unspecified) gave Mtb glucose medium: -15.34%; Mtb cholesterol medium: -21.92%.
COc1cccc2c1ccn2CCNC(=O)CCNc1ncccn1 gave Mtb glucose medium: 28.19%; Mtb cholesterol medium: 17.84%.
COC1CCN(c2ccc(F)cc2CN(C)CC(N)=O)CC1 gave Mtb glucose medium: 38.68%; Mtb cholesterol medium: 14.56%.
CC(=O)N1CCC(NC(=O)Cc2nc3nc(C)cc(C)n3n2)CC1 gave Mtb glucose medium: -5.4%; Mtb cholesterol medium: -5.432%.
COc1cccc(Cn2c(C)c(C)oc2=O)c1OC gave Mtb glucose medium: 11.3%; Mtb cholesterol medium: -9.516%.
COCCN1CCC(CNC(=O)Nc2ccc(-c3ccccc3)cc2)C1 (stereo unspecified) gave Mtb glucose medium: 38.23%; Mtb cholesterol medium: 22.45%.
N#Cc1cn(CCN2CCc3ccccc3C2)c(=O)[nH]c1=O gave Mtb glucose medium: 10.44%; Mtb cholesterol medium: -10.77%.
Cn1cc(C(=O)Nc2ccc(CN3CCOCC3)cn2)cn1 gave Mtb glucose medium: 15.69% and -2.312%; Mtb cholesterol medium: -13.09%.
Cc1ccc(S(=O)(=O)NC[C@H]2OC[C@@H](NCc3cccs3)[C@@H]2O)cc1 gave Mtb glucose medium: -19.82% and 1.378%; Mtb cholesterol medium: -32.38%.
CCCS(=O)(=O)N1CCOC2(CCCN(c3ccccn3)C2)C1.O=C(O)C(F)(F)F (stereo unspecified) gave Mtb glucose medium: 4.194%; Mtb cholesterol medium: 27.7%.
CCNC(=O)NCc1nn(CCN2CCCC2)c(=O)c2ccccc12 gave Mtb glucose medium: -16.1%; Mtb cholesterol medium: -20.27%.
COc1cccc(-c2cc(NCCN(C)C)nc3[nH]ccc23)n1 gave Mtb glucose medium: 36.92%; Mtb cholesterol medium: 25.5%.

Some entries from above, unchanged:

SMILES	Mtb glucose medium	Mtb cholesterol medium
Fc1ccc(-c2nnc(CN3CCCC3Cn3cncn3)o2)cc1 (stereo unspecified)	11.63	4.467
Cc1ccc(CSc2nc(N)cc(NCC(=O)N3CCNCC3)n2)cc1	37.32 and 19.43	14.27
Cc1csc(N(C)C(=O)C2CC(=O)N(c3ccccc3Cl)C2)n1 (stereo unspecified)	-14.51	-8.72

Data taken from ChEMBL document CHEMBL3988442, “University of Dundee, Small-Polar-MMV Screening Library” (2021).